Measurements reported in PubChem BioAssay AID743448 (Peter MacCallum Cancer Centre, 2014).
Shown is an unselected part of the 106 reagents, in one setting of the screen. 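Calls are per line and drug panel including etoposide, not vorinostat-specific; gene picks needed hits in two or more extra lines with vorinostat versus etoposide.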 No sequences are given here.

Assay: 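Third-round triage of 106 confirmed candidates in four colon lines under two drugs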 (follow-up of hits)
Cells: four human colon cancer cell lines: HCT116-VR (vorinostat-resistant HCT116 derivative), SW480, SW620 and LIM1215
Reagents: siRNA pool against human genes, 40 nM siRNA pool
Timing: drug added two days after transfection, read one day later
Conditions: vorinostat 2.5 µM on one half of each plate, etoposide 5 µM on the other half
Cell line and drug panel: vorinostat-resistant HCT116 cells with vorinostat
Measurement: 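Caspase 3/7 activity by luminescence and live-cell viability by fluorescence, each given as a ratio to mock-transfected wells and as a robust z-score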
Reading the numbers: caspase ratio to mock: higher = more caspase activity than mock; viability ratio to mock: higher = more live cells than mock; caspase robust z-score: higher = more caspase activity, more apoptosis; viability robust z-score: higher = more live cells
Rule for the call: 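Hit means caspase ratio to mock at least 1.6, or viability ratio to mock at most 0.75; wells with strong death in the absence of drug get no call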
Meaning of the calls: active = caspase or viability hit in this panel; inactive = no change, or unhealthy well

The opening 2 entries, to show the layout:
| target gene | caspase ratio to mock | viability ratio to mock | caspase robust z-score | viability robust z-score | outcome |
| --- | --- | --- | --- | --- | --- |
| AQR (aquarius intron-binding spliceosomal factor) | 4.21 | 0.58 | 2.49 | -2.09 | active |
| AP5S1 (adaptor related protein complex 5 subunit sigma 1) | 1.31 | 0.9 | -1.01 | -0.08 | inactive |

Results, from the first entry:
| target gene | caspase ratio to mock | viability ratio to mock | caspase robust z-score | viability robust z-score | outcome |
| --- | --- | --- | --- | --- | --- |
| AQR (aquarius intron-binding spliceosomal factor) | 4.21 | 0.58 | 2.49 | -2.09 | active |
| AP5S1 (adaptor related protein complex 5 subunit sigma 1) | 1.31 | 0.9 | -1.01 | -0.08 | inactive |
| LBHD1 (LBH domain containing 1) | 1.6 | 0.91 | -0.65 | -0.04 | active |
| PRRT3 (proline rich transmembrane protein 3) | 1.73 | 1.07 | -0.48 | 1 | active |
| PSMA7 (proteasome 20S subunit alpha 7) | 4.15 | 0.6 | 2.46 | -2 | active |
| DPPA5 (developmental pluripotency associated 5) | 1.94 | 1.02 | -0.28 | 0.64 | active |
| THAP1 (THAP domain containing 1) | 1.39 | 0.95 | -0.91 | 0.21 | inactive |
| NUP58 (nucleoporin 58) | 2.23 | 0.85 | 0.18 | -0.42 | active |
| TOX4 (TOX high mobility group box family member 4) | 1.62 | 1.03 | -0.63 | 0.69 | active |
| TDP2 (tyrosyl-DNA phosphodiesterase 2) | 2.55 | 1 | 0.46 | 0.55 | active |
| RBM42 (RNA binding motif protein 42) | 1.35 | 0.84 | -0.98 | -0.49 | inactive |
| KIR2DL1 | 1.34 | 1.1 | -1 | 1.18 | inactive |
| EIF1AX (eukaryotic translation initiation factor 1A X-linked) | 1.23 | 0.71 | -1.07 | -1.33 | active |
| NUP54 (nucleoporin 54) | 2.58 | 0.82 | 0.57 | -0.62 | active |
| HPCAL1 (hippocalcin like 1) | 1.43 | 0.88 | -0.84 | -0.18 | inactive |
| GATA1 (GATA binding protein 1) | 2.37 | 1.17 | 0.3 | 1.64 | active |
| AMDHD2 (amidohydrolase domain containing 2) | 2.59 | 0.96 | 0.52 | 0.31 | active |
| CSE1L (chromosome segregation 1 like) | 3.77 | 0.93 | 1.89 | 0.12 | active |
| H1-5 (H1.5 linker histone, cluster member) | 2.3 | 0.86 | 0.2 | -0.32 | active |
| NFYA (nuclear transcription factor Y subunit alpha) | 1.74 | 0.97 | -0.49 | 0.35 | active |
